No constants are given. Whether binding was seen depends on the method and setting. Binding seen in cells or lysates may run through a third protein. Some results given as binding are weak or reduced against the parent protein; the word gives no strength.
Target: T1, FANCA (human (endogenous in 293FT and EndoC-βH3)) (UniProt O15360)
T1 sequence: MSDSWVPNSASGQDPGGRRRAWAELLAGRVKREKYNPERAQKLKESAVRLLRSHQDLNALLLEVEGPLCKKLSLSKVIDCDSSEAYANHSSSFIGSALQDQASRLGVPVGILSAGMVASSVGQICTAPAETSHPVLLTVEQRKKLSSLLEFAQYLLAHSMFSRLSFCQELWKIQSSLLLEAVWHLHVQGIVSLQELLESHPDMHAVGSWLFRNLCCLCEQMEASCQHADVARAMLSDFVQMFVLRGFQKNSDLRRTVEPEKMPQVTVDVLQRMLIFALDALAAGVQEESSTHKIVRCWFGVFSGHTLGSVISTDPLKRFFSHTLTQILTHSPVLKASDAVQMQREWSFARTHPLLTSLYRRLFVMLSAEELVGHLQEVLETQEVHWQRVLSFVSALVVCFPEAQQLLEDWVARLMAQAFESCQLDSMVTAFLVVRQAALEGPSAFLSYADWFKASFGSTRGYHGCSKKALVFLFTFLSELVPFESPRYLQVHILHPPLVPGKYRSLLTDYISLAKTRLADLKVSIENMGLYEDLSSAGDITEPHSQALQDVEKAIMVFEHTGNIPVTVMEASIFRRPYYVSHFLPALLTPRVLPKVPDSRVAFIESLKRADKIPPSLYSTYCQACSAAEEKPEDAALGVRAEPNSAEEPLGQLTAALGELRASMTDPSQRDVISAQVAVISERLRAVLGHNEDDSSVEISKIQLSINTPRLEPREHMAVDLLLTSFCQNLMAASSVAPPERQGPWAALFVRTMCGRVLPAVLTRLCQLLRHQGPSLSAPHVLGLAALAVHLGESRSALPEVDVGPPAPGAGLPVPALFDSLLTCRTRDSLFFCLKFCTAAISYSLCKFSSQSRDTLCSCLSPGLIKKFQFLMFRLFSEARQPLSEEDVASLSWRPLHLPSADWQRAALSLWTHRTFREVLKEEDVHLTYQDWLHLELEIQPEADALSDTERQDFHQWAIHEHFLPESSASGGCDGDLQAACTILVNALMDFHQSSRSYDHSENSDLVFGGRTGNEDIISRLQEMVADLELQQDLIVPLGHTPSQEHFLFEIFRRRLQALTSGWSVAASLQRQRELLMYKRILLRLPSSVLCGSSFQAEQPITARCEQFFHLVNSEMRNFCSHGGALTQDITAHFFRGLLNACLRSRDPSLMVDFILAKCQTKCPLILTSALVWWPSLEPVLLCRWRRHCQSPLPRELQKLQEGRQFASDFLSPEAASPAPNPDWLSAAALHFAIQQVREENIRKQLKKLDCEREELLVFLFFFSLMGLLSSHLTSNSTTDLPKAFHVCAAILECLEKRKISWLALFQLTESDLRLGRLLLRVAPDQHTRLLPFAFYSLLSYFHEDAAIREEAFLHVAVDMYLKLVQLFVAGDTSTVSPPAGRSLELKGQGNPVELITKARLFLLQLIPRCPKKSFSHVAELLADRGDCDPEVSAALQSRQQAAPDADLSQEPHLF
Test: co-IP; endogenous FANCA precipitated from EndoC-βH3 lysate with anti-FANCA antibody on Dynabeads; western blot for PIK3C2A and TFRC

Amino acid sequences for entries named in this document (tags omitted).
UniProt O00443: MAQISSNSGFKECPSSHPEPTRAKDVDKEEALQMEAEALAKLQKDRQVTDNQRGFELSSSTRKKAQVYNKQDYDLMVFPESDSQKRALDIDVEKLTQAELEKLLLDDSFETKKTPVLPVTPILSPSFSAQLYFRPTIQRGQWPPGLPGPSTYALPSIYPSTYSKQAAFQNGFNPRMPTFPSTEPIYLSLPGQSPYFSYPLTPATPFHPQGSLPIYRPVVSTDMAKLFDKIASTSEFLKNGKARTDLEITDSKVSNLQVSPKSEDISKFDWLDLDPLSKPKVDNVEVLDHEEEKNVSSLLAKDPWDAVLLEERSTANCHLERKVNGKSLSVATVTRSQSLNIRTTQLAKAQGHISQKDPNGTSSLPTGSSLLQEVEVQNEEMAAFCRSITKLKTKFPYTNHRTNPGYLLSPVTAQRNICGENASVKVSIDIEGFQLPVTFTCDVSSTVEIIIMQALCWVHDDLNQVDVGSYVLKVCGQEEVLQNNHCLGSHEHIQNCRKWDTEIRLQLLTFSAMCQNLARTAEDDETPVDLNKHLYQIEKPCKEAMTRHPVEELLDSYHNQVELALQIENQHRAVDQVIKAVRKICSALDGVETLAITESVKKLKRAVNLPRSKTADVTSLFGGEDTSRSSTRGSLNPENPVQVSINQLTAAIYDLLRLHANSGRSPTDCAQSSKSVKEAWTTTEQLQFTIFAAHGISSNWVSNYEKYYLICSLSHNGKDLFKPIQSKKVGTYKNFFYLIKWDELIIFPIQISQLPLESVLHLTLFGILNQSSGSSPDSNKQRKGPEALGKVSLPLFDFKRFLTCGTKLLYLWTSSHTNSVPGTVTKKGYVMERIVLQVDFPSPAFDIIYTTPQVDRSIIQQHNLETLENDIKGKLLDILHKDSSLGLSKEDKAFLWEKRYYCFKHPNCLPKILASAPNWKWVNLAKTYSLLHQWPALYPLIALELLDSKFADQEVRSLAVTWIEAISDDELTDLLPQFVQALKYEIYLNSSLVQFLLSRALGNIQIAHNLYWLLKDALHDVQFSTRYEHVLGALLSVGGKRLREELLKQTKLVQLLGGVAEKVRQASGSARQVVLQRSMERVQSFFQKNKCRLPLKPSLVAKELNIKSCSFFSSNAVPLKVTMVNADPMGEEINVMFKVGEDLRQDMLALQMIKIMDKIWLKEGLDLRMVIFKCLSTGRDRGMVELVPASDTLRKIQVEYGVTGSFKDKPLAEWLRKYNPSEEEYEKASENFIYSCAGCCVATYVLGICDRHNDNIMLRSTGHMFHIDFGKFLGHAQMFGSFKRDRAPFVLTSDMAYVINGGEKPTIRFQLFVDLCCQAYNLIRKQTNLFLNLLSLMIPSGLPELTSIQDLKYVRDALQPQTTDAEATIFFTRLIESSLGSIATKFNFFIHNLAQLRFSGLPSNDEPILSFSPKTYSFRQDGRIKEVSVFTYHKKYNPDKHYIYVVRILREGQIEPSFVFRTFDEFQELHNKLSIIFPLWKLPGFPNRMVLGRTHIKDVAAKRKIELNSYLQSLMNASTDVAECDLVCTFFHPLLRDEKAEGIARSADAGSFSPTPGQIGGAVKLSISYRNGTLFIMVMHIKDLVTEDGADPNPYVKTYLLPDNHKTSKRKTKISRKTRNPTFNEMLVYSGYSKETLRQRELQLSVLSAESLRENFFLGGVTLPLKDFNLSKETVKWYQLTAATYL

- binding: binds
Substance: Phosphatidylinositol 4-phosphate 3-kinase C2 domain-containing subunit alpha (from UniProt O00443 1-1686)
